System: S. mansoni schistosomulae
Test: Phenotypic primary screen assay on schistosomulae (phenotype; viability by methylene blue dye exclusion)
Format: cell-based
Conditions: Schistosoma mansoni, three-day-old schistosomulae, 24 h, calculated 5 days post compound exposure

CCCCc1oc2ccccc2c1C(=O)c1cc(I)c(OCCN(CC)CC)c(I)c1 [Amiodarone]
viability at 10 µM: 55%

Reference: PMC7284125, “Identification of annotated bioactive molecules that impair motility of the blood fluke Schistosoma mansoni” (International Journal for Parasitology: Drugs and Drug …, 2020)
